# According to the supplement of paper PMC8728848:
# Some of the results follow.
# Legend:
# Assay in all cases: glycan array binding signal (z-score within array); higher = stronger binding
# Settings in all cases: glycan notation: IUPAC condensed, linker removed
# [1] = molecular target: Neu5Ac(a2-6)Gal(b1-4)GlcNAc(b1-3)[Neu5Ac(a2-6)Gal(b1-4)GlcNAc(b1-6)]GalNAc
# Procedure, shortened: (§1)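 Glycan array data came from 3228 arrays in the Consortium for Functional Glycomics database, and only arrays with an available protein sequence were kept. Glycan names were put into IUPAC-condensed notation, and columns mapping to the same glycan were averaged. The binding signal is a within-array Z-score, averaged across arrays of one protein sequence run at different concentrations or buffers and across linkers. A negative Z-score can be read as non-binding.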
# [2] = molecular target: Neu5Ac(a2-6)Gal(b1-4)GlcNAc(b1-6)GalNAc
# Procedure, shortened: as §1
# [3] = molecular target: Neu5Ac(a2-6)Gal(b1-4)GlcNAc(b1-6)[Gal(b1-3)GlcNAc(b1-3)]Gal(b1-4)Glc
# Procedure, shortened: as §1
# [4] = molecular target: Neu5Ac(a2-6)Gal(b1-4)GlcNAc(b1-6)[Gal(b1-3)]GalNAc
# Procedure, shortened: as §1
# [5] = molecular target: Neu5Ac(a2-6)Gal(b1-4)GlcNAc6S
# Procedure, shortened: as §1
# [6] = molecular target: Neu5Ac(a2-6)GalNAc
# Procedure, shortened: as §1
# [7] = molecular target: Neu5Ac(a2-6)GalNAc(b1-4)GlcNAc
# Procedure, shortened: as §1
# [8] = molecular target: Neu5Ac(a2-6)GalNAc(b1-4)GlcNAc6S
# Procedure, shortened: as §1
# [9] = molecular target: Neu5Ac(a2-6)GlcNAc(b1-4)GlcNAc
# Procedure, shortened: as §1
# [10] = molecular target: Neu5Ac(a2-6)GlcNAc(b1-4)GlcNAc(b1-4)GlcNAc
# Procedure, shortened: as §1
# [11] = molecular target: Neu5Ac(a2-8)Neu5Ac
# Procedure, shortened: as §1
# [12] = molecular target: Neu5Ac(a2-8)Neu5Ac(a2-3)Gal(b1-3)GalNAc(b1-4)[Neu5Ac(a2-3)]Gal(b1-4)Glc
# Procedure, shortened: as §1
# [13] = molecular target: Neu5Ac(a2-8)Neu5Ac(a2-3)Gal(b1-3)GalNAc(b1-4)[Neu5Ac(a2-8)Neu5Ac(a2-3)]Gal(b1-4)Glc
# Procedure, shortened: as §1
# [14] = molecular target: Neu5Ac(a2-8)Neu5Ac(a2-3)Gal(b1-4)Glc
# Procedure, shortened: as §1
# [15] = molecular target: Neu5Ac(a2-8)Neu5Ac(a2-3)Gal(b1-4)GlcNAc
# Procedure, shortened: as §1
# [16] = molecular target: Neu5Ac(a2-8)Neu5Ac(a2-3)[Gal(b1-3)GalNAc(b1-4)]Gal(b1-4)Glc
# Procedure, shortened: as §1
# [17] = molecular target: Neu5Ac(a2-8)Neu5Ac(a2-3)[GalNAc(b1-4)]Gal(b1-4)Glc
# Procedure, shortened: as §1
# [18] = molecular target: Neu5Ac(a2-8)Neu5Ac(a2-8)Neu5Ac
# Procedure, shortened: as §1
# [19] = molecular target: Neu5Ac(a2-8)Neu5Ac(a2-8)Neu5Ac(a2-3)Gal(b1-4)Glc
# Procedure, shortened: as §1
# [20] = molecular target: Neu5Ac(a2-8)Neu5Ac(a2-8)Neu5Ac(a2-3)[Gal(b1-3)GalNAc(b1-4)]Gal(b1-4)Glc
# Procedure, shortened: as §1
# [21] = molecular target: Neu5Ac(a2-8)Neu5Ac(a2-8)Neu5Ac(a2-3)[GalNAc(b1-4)]Gal(b1-4)Glc
# Procedure, shortened: as §1
# [22] = molecular target: Neu5Ac(a2-8)Neu5Ac(a2-8)Neu5Ac(a2-8)Neu5Ac(a2-3)[GalNAc(b1-4)]Gal(b1-4)Glc
# Procedure, shortened: as §1
# [23] = molecular target: Neu5Ac(a2-8)Neu5Gc(a2-3)Gal(b1-4)GlcNAc
# Procedure, shortened: as §1
# [24] = molecular target: Neu5Ac(b2-6)Gal(b1-4)GlcNAc
# Procedure, shortened: as §1
# [25] = molecular target: Neu5Ac(b2-6)GalNAc
# Procedure, shortened: as §1
# [26] = molecular target: Neu5Ac9Ac(a2-3)Gal(b1-3)GlcNAc
# Procedure, shortened: as §1
# [27] = molecular target: Neu5Ac9Ac(a2-3)Gal(b1-4)GlcNAc
# Procedure, shortened: as §1
# [28] = molecular target: Neu5Ac9Ac(a2-6)Gal(b1-4)GlcNAc
# Procedure, shortened: as §1
# [29] = molecular target: Neu5Gc(a2-3)Gal(b1-3)GlcNAc
# Procedure, shortened: as §1
# [30] = molecular target: Neu5Gc(a2-3)Gal(b1-3)[Fuc(a1-4)]GlcNAc
# Procedure, shortened: as §1
# [31] = molecular target: Neu5Gc(a2-3)Gal(b1-4)Glc
# Procedure, shortened: as §1
# [32] = molecular target: Neu5Gc(a2-3)Gal(b1-4)GlcNAc
# Procedure, shortened: as §1
# [33] = molecular target: Neu5Gc(a2-3)Gal(b1-4)GlcNAc(b1-3)Gal(b1-4)GlcNAc(b1-2)Man(a1-3)[Neu5Gc(a2-3)Gal(b1-4)GlcNAc(b1-3)Gal(b1-4)GlcNAc(b1-2)Man(a1-6)]Man(b1-4)GlcNAc(b1-4)GlcNAc
# Procedure, shortened: as §1
# [34] = molecular target: Neu5Gc(a2-3)Gal(b1-4)[Fuc(a1-3)]GlcNAc
# Procedure, shortened: as §1
# [35] = molecular target: Neu5Gc(a2-6)Gal(b1-4)GlcNAc
# Procedure, shortened: as §1
# [36] = molecular target: Neu5Gc(a2-6)GalNAc
# Procedure, shortened: as §1
# [37] = molecular target: Neu5Gc(a2-8)Neu5Ac(a2-3)Gal(b1-4)GlcNAc
# Procedure, shortened: as §1
# [38] = molecular target: Neu5Gc(a2-8)Neu5Gc(a2-3)Gal(b1-4)GlcNAc
# Procedure, shortened: as §1
binder,measurement,setting,value
Epa19 (Candida glabrata) (protein) MGSSHHHHHHSSGLVPRGSHMASSKDPTRFPIGCSPQVLKTQPGLAVKLYSYGHPVPGCSYITYQYPDFPRSGYKKERKLADITGVNGKIDIDLKPNDPCRVLTGHLPSNYNYPDTLTYTNFTMILYGYFQPKVTGYHTFNLEADDLLFMNLGAGNAFDCCKAESTLDNFGNYQSYSLWGSDYAKANITVFLVSGVYYPIRLFYVNRDNNAVIDFSFTTEFDKEKVHDFTSYFFSASDGEQCPGSV,glycan array binding signal (z-score),[1],-0.421
same,glycan array binding signal (z-score),[2],0.76
same,glycan array binding signal (z-score),[3],-0.431
same,glycan array binding signal (z-score),[4],-0.036
same,glycan array binding signal (z-score),[5],-0.198
same,glycan array binding signal (z-score),[6],-0.465
same,glycan array binding signal (z-score),[7],-0.683
same,glycan array binding signal (z-score),[8],0.451
same,glycan array binding signal (z-score),[9],1.44
same,glycan array binding signal (z-score),[10],-0.588
same,glycan array binding signal (z-score),[11],-0.577
same,glycan array binding signal (z-score),[12],-0.103
same,glycan array binding signal (z-score),[13],0.259
same,glycan array binding signal (z-score),[14],-0.214
same,glycan array binding signal (z-score),[15],-0.858
same,glycan array binding signal (z-score),[16],0.074
same,glycan array binding signal (z-score),[17],1.57
same,glycan array binding signal (z-score),[18],0.189
same,glycan array binding signal (z-score),[19],-0.125
same,glycan array binding signal (z-score),[20],2.06
same,glycan array binding signal (z-score),[21],0.647
same,glycan array binding signal (z-score),[22],-0.059
same,glycan array binding signal (z-score),[23],-1.05
same,glycan array binding signal (z-score),[24],1.13
same,glycan array binding signal (z-score),[25],-0.238
same,glycan array binding signal (z-score),[26],-0.414
same,glycan array binding signal (z-score),[27],-0.384
same,glycan array binding signal (z-score),[28],-0.265
same,glycan array binding signal (z-score),[29],-0.05
same,glycan array binding signal (z-score),[30],-0.114
same,glycan array binding signal (z-score),[31],0.353
same,glycan array binding signal (z-score),[32],-0.325
same,glycan array binding signal (z-score),[33],-0.264
same,glycan array binding signal (z-score),[34],-0.125
same,glycan array binding signal (z-score),[35],-0.062
same,glycan array binding signal (z-score),[36],-0.123
same,glycan array binding signal (z-score),[37],-0.467
same,glycan array binding signal (z-score),[38],-0.386

# Three entries from above in a different format.
binder	measurement	setting	value
Epa19 (Candida glabrata) (protein) MGSSHHHHHHSSGLVPRGSHMASSKDPTRFPIGCSPQVLKTQPGLAVKLYSYGHPVPGCSYITYQYPDFPRSGYKKERKLADITGVNGKIDIDLKPNDPCRVLTGHLPSNYNYPDTLTYTNFTMILYGYFQPKVTGYHTFNLEADDLLFMNLGAGNAFDCCKAESTLDNFGNYQSYSLWGSDYAKANITVFLVSGVYYPIRLFYVNRDNNAVIDFSFTTEFDKEKVHDFTSYFFSASDGEQCPGSV	glycan array binding signal (z-score)	[5]	-0.198
same	glycan array binding signal (z-score)	[6]	-0.465
same	glycan array binding signal (z-score)	[7]	-0.683
